Measured values as given in paper PMC9120517.
Results are given in words; binding and its absence hold for the method and conditions named. Binding seen in cells or lysates may run through a third protein. Some entries that bind do so weakly or less than the wild type.

By UniProt entry, the sequences of proteins in these tests, tags left out.
UniProt P04350: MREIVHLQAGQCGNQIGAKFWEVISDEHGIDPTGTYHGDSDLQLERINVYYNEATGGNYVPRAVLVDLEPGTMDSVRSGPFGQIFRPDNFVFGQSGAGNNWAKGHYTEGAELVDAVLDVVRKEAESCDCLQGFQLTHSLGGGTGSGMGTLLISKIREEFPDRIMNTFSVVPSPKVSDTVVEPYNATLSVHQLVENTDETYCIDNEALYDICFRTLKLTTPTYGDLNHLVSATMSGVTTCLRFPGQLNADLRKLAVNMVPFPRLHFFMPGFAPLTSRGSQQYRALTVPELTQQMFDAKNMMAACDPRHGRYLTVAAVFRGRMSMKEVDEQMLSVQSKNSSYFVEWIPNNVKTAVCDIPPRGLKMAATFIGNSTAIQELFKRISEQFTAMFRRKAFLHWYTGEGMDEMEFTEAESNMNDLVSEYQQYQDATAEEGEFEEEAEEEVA
UniProt P35579: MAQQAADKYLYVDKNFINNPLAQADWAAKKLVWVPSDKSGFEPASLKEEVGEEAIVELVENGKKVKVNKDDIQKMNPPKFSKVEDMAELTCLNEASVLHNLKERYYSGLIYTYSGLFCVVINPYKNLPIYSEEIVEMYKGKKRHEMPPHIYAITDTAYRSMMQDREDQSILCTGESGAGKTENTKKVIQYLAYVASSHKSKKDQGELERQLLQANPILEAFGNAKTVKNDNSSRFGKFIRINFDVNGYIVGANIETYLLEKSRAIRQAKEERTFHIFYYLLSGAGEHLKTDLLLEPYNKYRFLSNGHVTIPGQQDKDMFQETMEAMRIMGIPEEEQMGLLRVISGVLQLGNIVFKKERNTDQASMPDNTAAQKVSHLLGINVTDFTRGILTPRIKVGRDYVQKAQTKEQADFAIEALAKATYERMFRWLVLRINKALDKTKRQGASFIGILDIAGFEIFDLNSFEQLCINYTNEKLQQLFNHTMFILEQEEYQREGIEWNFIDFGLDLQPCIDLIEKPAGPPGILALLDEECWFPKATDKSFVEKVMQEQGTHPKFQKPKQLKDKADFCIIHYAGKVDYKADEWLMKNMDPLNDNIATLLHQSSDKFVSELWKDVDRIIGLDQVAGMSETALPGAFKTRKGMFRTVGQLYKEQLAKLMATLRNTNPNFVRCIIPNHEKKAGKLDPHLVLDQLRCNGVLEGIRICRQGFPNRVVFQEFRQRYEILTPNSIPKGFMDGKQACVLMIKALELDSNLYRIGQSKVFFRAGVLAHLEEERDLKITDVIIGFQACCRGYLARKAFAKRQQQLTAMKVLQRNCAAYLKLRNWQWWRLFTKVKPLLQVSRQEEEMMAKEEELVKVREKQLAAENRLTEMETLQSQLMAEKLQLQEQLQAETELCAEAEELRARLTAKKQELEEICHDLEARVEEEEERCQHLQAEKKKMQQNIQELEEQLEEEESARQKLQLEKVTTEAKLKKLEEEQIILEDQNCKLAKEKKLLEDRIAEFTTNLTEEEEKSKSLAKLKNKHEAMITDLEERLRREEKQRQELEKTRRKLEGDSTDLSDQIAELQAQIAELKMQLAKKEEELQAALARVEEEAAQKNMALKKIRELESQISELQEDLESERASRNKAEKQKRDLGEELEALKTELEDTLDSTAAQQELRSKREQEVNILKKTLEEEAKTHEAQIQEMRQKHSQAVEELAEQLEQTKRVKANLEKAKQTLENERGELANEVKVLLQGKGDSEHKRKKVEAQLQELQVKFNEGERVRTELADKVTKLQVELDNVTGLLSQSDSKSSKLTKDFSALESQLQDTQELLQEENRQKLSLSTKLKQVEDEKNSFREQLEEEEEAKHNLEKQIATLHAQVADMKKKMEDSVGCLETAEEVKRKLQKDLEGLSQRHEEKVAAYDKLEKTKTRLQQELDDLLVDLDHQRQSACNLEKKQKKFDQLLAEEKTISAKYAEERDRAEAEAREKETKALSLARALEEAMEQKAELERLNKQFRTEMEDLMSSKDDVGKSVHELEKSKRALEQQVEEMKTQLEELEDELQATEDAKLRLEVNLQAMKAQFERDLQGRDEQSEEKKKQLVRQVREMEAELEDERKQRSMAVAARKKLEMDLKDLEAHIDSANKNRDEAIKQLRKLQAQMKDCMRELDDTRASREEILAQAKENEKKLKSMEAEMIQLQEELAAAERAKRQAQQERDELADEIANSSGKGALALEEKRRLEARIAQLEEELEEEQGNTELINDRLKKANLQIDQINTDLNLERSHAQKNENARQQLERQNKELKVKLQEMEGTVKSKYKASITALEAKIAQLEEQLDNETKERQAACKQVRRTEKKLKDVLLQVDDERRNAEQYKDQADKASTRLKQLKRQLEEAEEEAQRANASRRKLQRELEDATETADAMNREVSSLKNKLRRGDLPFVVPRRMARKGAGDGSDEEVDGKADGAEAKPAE

Molecular target: Human tubulin beta class IVa (TUBB4A) (human (endogenous in DU145)) (UniProt P04350)
Test: co-IP; endogenous TUBB4A and MYH9 in DU145 cell lysate; IgG or specific antibody, protein A/G agarose; input diluted 1/10

MYH9 (myosin heavy chain 9) (from UniProt P35579 1-1960)
binding: binds
